# Assay results published in PMC3091842.
# Protein sequences, listed by entry. Tags and fused reporters are not part of them.
# UniProt Q14999: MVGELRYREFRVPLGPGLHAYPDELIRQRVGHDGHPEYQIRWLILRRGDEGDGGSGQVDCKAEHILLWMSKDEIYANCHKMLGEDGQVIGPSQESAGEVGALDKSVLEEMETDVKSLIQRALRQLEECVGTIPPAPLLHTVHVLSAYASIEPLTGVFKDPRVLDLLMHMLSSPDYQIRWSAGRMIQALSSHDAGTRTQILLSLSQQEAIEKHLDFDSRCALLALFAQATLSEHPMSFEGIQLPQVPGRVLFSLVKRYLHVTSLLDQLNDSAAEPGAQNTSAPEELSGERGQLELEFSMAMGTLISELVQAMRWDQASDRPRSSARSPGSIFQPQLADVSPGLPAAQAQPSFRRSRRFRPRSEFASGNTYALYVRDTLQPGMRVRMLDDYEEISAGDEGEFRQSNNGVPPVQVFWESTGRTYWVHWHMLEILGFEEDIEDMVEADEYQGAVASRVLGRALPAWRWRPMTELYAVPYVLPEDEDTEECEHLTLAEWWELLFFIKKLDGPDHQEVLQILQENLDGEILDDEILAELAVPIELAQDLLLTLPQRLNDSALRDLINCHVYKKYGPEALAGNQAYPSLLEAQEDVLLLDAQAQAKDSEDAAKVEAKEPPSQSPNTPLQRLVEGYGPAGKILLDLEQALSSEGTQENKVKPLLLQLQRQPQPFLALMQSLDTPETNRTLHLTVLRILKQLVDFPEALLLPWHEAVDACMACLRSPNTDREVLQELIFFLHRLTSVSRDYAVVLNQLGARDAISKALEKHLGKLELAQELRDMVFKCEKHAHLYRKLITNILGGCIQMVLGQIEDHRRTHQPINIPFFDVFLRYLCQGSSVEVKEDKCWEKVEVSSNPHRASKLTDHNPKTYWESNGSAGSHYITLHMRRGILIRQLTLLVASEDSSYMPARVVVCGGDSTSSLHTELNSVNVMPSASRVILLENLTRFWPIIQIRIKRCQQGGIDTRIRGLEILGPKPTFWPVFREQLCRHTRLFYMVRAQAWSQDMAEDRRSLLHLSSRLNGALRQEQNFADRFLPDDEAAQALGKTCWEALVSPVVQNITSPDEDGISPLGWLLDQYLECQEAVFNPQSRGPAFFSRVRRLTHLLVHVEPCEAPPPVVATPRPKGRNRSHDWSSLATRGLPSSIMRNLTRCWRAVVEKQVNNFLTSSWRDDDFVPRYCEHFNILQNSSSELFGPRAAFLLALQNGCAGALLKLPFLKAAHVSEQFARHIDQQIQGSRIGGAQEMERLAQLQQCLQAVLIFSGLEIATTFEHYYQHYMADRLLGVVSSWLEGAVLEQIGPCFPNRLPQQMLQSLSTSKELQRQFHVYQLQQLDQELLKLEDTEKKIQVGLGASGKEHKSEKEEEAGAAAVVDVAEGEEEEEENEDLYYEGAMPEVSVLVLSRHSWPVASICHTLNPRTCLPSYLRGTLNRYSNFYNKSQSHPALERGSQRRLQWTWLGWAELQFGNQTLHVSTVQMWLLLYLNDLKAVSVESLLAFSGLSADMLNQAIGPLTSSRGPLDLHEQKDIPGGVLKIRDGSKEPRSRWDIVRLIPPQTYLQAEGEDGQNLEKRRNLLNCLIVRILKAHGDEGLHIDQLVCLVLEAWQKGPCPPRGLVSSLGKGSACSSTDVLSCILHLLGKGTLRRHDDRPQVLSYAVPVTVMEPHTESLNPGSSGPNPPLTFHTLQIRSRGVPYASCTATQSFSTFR
# UniProt O75147: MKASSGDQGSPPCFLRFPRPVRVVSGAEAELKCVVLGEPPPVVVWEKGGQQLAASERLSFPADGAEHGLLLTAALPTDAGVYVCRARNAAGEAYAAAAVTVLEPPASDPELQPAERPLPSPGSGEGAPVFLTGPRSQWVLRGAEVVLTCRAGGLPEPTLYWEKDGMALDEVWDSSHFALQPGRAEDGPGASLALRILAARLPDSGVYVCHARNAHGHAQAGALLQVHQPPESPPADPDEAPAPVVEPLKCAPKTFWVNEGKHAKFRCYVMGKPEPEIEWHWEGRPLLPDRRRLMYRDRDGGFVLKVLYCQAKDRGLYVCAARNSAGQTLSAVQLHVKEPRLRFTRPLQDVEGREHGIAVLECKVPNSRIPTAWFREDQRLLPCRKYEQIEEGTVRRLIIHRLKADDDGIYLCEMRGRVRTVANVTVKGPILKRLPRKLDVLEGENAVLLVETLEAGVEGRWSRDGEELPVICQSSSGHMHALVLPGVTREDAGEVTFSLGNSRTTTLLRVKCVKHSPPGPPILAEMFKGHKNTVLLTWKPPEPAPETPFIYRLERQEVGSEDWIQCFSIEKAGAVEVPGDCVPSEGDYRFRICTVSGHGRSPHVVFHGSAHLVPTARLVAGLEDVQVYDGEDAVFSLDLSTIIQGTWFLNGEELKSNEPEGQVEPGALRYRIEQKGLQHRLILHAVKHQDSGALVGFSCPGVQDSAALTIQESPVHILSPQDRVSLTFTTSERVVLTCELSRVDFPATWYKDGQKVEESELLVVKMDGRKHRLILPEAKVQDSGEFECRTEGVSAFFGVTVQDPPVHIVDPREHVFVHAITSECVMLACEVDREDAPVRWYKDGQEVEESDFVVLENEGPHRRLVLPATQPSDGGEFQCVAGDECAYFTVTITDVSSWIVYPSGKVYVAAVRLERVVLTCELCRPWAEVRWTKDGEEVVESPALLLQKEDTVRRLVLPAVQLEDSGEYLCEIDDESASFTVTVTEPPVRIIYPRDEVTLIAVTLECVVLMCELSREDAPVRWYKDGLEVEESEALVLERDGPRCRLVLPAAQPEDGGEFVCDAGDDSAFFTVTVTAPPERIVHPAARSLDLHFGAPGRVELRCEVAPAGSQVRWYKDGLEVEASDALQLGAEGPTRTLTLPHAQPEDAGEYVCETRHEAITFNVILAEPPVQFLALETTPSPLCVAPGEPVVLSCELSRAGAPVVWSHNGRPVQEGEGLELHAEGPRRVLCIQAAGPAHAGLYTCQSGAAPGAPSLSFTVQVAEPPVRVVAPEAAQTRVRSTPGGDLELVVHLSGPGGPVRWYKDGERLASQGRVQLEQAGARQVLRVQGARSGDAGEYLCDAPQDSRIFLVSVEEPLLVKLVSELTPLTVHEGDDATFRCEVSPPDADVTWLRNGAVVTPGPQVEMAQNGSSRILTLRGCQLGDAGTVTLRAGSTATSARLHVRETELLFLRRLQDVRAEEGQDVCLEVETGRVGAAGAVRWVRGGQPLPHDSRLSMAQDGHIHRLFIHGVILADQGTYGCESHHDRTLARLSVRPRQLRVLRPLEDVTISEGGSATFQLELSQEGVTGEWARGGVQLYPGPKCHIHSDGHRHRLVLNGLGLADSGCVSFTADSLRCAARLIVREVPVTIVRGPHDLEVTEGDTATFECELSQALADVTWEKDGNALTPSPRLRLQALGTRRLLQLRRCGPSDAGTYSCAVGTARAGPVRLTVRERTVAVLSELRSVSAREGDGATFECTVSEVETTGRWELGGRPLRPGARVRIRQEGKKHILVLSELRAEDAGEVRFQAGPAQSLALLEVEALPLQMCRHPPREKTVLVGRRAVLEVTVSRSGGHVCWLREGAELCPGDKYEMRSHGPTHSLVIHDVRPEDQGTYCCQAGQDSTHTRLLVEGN
# UniProt O35254: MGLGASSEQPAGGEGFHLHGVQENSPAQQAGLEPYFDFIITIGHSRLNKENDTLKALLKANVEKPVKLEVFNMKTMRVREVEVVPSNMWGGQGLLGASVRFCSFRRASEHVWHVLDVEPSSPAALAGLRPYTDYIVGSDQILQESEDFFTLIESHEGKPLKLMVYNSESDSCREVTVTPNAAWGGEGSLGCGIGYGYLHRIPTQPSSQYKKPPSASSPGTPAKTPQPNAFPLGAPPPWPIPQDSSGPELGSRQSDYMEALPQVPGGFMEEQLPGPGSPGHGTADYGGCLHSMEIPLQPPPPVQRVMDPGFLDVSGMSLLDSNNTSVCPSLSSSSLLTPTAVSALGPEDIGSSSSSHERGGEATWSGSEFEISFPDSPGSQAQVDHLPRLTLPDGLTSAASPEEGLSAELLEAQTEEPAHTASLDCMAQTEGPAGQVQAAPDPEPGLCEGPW
# UniProt Q8VE73: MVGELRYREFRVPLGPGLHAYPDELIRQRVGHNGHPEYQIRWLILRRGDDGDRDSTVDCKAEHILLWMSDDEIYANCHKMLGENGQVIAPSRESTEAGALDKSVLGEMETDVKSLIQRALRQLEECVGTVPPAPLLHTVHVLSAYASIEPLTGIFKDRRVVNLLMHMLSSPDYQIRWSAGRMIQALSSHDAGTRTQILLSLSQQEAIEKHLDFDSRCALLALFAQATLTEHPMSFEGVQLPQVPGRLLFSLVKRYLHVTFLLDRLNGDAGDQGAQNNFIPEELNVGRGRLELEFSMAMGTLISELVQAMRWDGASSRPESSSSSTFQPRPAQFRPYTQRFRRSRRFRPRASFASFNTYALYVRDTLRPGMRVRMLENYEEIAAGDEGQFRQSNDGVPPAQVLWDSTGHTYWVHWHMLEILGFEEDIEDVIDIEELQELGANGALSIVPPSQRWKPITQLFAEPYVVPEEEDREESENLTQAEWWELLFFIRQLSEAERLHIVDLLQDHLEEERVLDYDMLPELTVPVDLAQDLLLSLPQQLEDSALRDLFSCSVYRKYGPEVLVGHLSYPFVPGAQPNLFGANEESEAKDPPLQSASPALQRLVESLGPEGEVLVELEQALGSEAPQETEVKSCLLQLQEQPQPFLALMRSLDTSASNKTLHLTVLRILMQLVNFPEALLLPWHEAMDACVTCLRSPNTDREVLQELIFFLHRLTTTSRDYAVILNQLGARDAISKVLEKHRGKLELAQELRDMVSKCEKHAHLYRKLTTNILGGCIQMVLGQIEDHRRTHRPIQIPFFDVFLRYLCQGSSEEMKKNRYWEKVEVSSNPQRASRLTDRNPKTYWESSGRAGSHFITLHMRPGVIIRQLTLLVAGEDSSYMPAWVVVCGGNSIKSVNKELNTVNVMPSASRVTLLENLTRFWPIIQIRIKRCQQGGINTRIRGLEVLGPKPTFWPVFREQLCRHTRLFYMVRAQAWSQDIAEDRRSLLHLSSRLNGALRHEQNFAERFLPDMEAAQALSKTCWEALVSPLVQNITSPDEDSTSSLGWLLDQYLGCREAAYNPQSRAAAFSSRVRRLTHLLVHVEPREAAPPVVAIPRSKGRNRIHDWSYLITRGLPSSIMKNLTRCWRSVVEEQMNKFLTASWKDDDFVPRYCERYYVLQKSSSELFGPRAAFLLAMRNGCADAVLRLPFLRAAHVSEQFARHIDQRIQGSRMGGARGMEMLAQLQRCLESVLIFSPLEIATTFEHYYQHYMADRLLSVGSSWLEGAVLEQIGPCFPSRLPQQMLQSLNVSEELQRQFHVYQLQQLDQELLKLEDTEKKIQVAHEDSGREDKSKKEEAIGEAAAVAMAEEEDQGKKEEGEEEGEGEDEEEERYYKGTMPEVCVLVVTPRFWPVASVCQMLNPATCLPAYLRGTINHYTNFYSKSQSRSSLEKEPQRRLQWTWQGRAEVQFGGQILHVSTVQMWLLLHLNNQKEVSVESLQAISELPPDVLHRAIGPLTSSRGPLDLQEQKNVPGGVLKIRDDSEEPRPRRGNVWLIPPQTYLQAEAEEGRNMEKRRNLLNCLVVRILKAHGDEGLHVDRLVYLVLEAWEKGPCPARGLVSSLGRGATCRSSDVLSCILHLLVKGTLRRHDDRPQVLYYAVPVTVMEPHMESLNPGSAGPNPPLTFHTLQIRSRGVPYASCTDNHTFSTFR
# No constants are given. Whether binding was seen depends on the method and setting. In cells and extracts the contact can be indirect. Some results given as binding are weak or reduced against the parent protein; the word gives no strength. For some assays here: Sequences can lack the tags named with a protein.
# T1: Fbxw8 (endogenous, Neuro2A) (mouse (endogenous in Neuro2A)) (UniProt Q8BIA4)
# T1 sequence: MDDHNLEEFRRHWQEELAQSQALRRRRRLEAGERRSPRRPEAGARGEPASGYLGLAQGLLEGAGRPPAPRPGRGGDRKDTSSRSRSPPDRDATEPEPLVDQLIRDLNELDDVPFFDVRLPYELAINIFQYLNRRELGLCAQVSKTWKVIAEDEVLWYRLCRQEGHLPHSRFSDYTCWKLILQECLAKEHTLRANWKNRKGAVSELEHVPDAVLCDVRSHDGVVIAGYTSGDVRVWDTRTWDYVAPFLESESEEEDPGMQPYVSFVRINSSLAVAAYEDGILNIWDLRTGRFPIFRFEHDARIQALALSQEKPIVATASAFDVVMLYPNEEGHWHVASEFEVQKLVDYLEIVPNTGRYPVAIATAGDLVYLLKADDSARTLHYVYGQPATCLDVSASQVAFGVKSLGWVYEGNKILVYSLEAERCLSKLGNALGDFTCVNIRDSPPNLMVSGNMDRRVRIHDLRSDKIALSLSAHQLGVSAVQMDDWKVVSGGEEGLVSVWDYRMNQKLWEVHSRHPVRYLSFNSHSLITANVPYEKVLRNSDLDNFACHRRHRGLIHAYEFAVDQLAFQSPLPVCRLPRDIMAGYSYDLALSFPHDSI
# T2: Flag-Fbxw8 (human) (UniProt Q8N3Y1)
# T2 sequence: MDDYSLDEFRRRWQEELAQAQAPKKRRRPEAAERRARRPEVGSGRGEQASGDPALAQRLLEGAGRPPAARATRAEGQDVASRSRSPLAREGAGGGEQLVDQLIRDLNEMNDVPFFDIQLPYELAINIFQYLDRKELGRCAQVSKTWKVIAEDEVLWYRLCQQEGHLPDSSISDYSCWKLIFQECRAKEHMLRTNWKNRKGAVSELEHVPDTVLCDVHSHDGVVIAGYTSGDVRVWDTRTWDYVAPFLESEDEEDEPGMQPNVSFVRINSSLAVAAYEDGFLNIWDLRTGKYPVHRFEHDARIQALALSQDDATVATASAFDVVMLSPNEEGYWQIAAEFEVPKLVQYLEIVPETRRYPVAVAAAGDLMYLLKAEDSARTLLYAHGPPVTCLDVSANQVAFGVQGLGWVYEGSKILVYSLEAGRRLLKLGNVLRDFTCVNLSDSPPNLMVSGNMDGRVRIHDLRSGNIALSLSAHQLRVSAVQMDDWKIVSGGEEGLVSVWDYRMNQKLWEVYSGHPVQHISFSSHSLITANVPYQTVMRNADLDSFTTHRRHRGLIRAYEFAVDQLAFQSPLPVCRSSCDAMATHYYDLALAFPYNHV
# B1: Fbxw8 (endogenous, cortical neurons) (protein, UniProt P0DL28 1-596)
# chain: MEDHNLEEFRQRWQEELAHSQVLRRRRRLEAGERRPRRPEAGARGEPASGYLGLAQGLLEGAGRPPAPRPGRTDRKDVSSRSRSPPDRDAAEPEPLVDQLIRDLNEMDDVPFFDVHLPYELAINIFQYLNRRELGLCAQVSKTWKVIAEDEVLWYRLCRQEGHLPHSRFSDYTCWKLILQECLAPVHLIRPSWMNRKGAVSELEHVPDAVLCDVRSHDGVVIAGYTSGEVRVWDTRTWDYVAPFLESESEEEDPGMQPYVSFVRINSSLAVAAYEDGILNVWDLRTGRFPIFRFEHDARIQALALSQEKPVVATASAFDVVMLYPNEEGNWHVASEFEVQKLVDYLEIVPNTGRYPVAIATAGDLVYLLKAEDSARTLHYVYGQPATCLDVSASQVAFGVKSLGWVYEGNKILVYSLEAERCLSKLGNALGDFTCVNIRDSPPNLMVSGNMDRRVRLHDLRTDKIALSLSAHQLGVSAVQMDDWKIVSGGEEGLVSVWDYRMNQKLWEVHSRHPVRYISFNSHSLITANVPYEKVLRNSDLDNFACHRRHRGLIHAYEFAVDQLAFQSPLPICRLPRDTVAGYSYDLALSFPYDSI
# Tests used:
# [1] = target: T1, Fbxw8 (endogenous, Neuro2A) (mouse (endogenous in Neuro2A)); test: co-IP; lysates of Neuro2A cells immunoprecipitated with the Fbxw8 antibody or pre-immune serum, blotted with Cul7 and Fbxw8 antibodies; endogenous proteins
# Flag-Fbxw8 (human) = target: T2, Flag-Fbxw8 (human); test: co-IP; lysates of 293T cells transfected with Flag-Fbxw8 and Grasp65-GFP, its mutants or Grasp55-GFP, immunoprecipitated with the Flag antibody (Figure 7F) or the GFP antibody (Figures 7G, S13A); 1% Triton X-100 lysis buffer
# full-length Cul7-HA = full-length Cul7-HA (UniProt Q14999); test: co-IP; lysates of 293T cells transfected with V5-OBSL1 and Cul7-HA (full length or deletion mutants), immunoprecipitated with V5 or HA antibodies, blotted with V5 and HA antibodies; 1% Triton X-100, 150 mM NaCl, 50 mM Tris pH 7.5
# [2] = target: V5-OBSL1 (expressed in 293T cells) (UniProt O75147); test: as above
# [3] = target: Grasp65 (endogenous, cortical neurons) (rat (endogenous in cortical neurons)) (UniProt O35254); test: co-IP; lysates of cortical neurons immunoprecipitated with the Grasp65 antibody or pre-immune serum, blotted with Grasp65 and Fbxw8 antibodies; endogenous proteins
molecule,measurement,setting,value
"Cul7 (endogenous, Neuro2A) (from UniProt Q8VE73 1-1689)",binding,[1],binds
Grasp65-GFP (from UniProt O35254 1-451),binding,Flag-Fbxw8 (human),binds
V5-OBSL1 (expressed in 293T cells) (from UniProt O75147 1-1896),binding,full-length Cul7-HA,binds
full-length Cul7-HA (from UniProt Q14999 1-1698),binding,[2],binds
B1,binding,[3],binds
